The source of these data is patent publication US20230203142A1, “TREATMENT OF METABOLIC DISORDERS THROUGH THE TARGETING OF A NOVEL CIRCULATING HORMONE COMPLEX” (The President and Fellows of Harvard College, priority 2020, published 2023).

By UniProt entry, the sequences of proteins in these tests, tags left out. Where a name states a change or a piece, a line headed by the entry shows the natural chain unless it says otherwise.
UniProt P15531: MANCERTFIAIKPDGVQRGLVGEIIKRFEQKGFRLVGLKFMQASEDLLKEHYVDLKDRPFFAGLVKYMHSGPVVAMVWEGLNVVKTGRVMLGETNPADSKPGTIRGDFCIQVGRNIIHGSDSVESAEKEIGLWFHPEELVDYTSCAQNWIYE
UniProt P55263: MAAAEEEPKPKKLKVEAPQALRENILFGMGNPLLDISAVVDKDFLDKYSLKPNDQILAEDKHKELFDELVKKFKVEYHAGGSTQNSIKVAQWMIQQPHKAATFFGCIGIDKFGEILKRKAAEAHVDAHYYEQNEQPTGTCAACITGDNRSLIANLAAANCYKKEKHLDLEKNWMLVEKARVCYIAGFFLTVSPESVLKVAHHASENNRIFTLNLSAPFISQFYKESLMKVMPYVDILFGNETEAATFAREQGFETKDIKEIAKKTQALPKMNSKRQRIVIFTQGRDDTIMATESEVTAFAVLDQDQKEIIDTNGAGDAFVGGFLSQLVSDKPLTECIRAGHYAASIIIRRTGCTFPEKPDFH

These are yes or no findings as the source states them, for the method shown. Some entries that bind do so weakly or less than the wild type.

The target of test [1] is human NDPK-A (nucleoside diphosphate kinase A), full-length recombinant (human) (UniProt P15531). The test can be described thus: MST.
For test [2], the target named is human ADK (adenosine kinase), recombinant (human) (UniProt P55263). Briefly: MST.

B1: recombinant human FABP4 (fatty acid binding protein 4) (protein)
chain: CDAFVGTWKLVSSENFDDYMKEVGVGFATRKVAGMAKPNMIISVNGDVITIKSESTFKNTEISFILGQEFDEVTADDRKVKSTITLDGGVLVHVQKWDGKSTTIKRKREDDKLVVECVMKGVTSTRVYERA
In the case of B1, the binding entry in test [1] and in test [2] was “binds” in each case.
